Patent US20260166168A1 (MEDILINK THERAPEUTICS SUZHOU, published 2026)
Numbering of substitutions follows the chain as printed. These are yes or no findings as the source states them, for the method shown. Some results given as binding are weak or reduced against the parent protein; the word gives no strength.

B1: 59B10D3-Hz antibody (antibody, human IgG1, kappa, V domains shown)
VH: EVQLVESGGGLVQPGGSLRLSCAASGFTFSDAWMDWVRQAPGKGLEWVAEIRNKANNHATYYVDSVKGRFTISRDDAKNSVYLQMNSLRAEDTAVYYCTRNNYGSTWTYYAMDYWGQGTLVTVSS
VL: DIQMTQSPSSLSASVGDRVTITCRASQDISNYLNWYQQKPGKAVKLLIYYTSRLHSGVPSRFSGSGSGTDYTLTISSLQPEDFATYYCQQGYTLPLTFGQGTKVEIKR
notes: Humanized; also called 59B10D3-hz1
B2: 10F2F3-Hz antibody (antibody, human IgG1, kappa, V domains shown)
VH: QVQLVESGAEVKKPGSSVKVSCKASGYAFSSHWVNWVRQAPGQGLEWMGQIYPGNGDTNYAQKFQGRVTLTADKSTSTAYMELSSLTSEDTAVYFCARWFAYWGQGTLVTVSS
VL: DIQMTQSPSSLSASVGDRVTITCKSSQSLLDGGNQKNYLAWYQQKPGKPPKLLVYFASIRESGVPSRFSGSGSGTDFTLTISSLQPEDFATYYCQQHYNTPWTFGQGTKVEIKR
notes: Humanized
B3: 55C11E4-Hz1 (antibody, human IgG1, kappa, V domains shown)
VH: EVQLVQSGAEVKKPGASVKVSCKASGYTFTDYYMNWVRQAPGQRLEWMGVINPYNGGTNYSQKFQGRVTLTVDKSASTAYMELSSLRSEDTAVYYCARDSNYVGLLDYWGQGTLVTVSS
VL: DIVLTQSPATLSLSPGERATLSCRASQSISNNLHWYQQKPGQAPRLLIKYASQSISGIPARFSGSGSGPDFTLTISSLEPEDFAVYFCQQSNSWPYTFGQGTKVEIKR
notes: Humanized IgG1/kappa
B4: 55C11E4-Hz2 (antibody, human IgG1, kappa, V domains shown)
VH: B3 VH with S61A
VL: B3 VL
notes: Optimized humanized IgG1/kappa; also called 55C11E4-Hz2-biotin
B5: 87F7F10-Hz (antibody, human IgG1, kappa, V domains shown)
VH: QVQLQESGPGLVKPSETLSLTCTVSGYSITSDFYWNWIRQPPGKGLEWIGYITYDGSTNYNPSLKSRVTISRDTSKNQFSLKLSSVTAADTAVYYCVYGDFNRHAMDYWGQGTLVTVSS
VL: DIVMTQSPDSLAVSLGERATINCRSSQSLFNSRTRKNYLAWYQQKPGQPPKVLIYWASTRESGVPDRFSGSGSGTDFTLTISSLQAEDVAVYYCEQSFYLFTFGQGTKVEIKR
notes: Humanized; also called 87F7F10-hz1
B6: 6F11C10-Hz1 antibody (antibody, human IgG1, kappa, V domains shown)
VH: EVQLVQSGAEVKKPGASVKVSCKASGFTFTDYYMHWVRQAPGQSLEWMGLVYPYNGDISYAQKFQGRVTLTVDTSISTAYMELSRLRSDDTAVYYCARQGNYVNNAIDYWGQGTLVTVSS
VL: DIQMTQSPSSLSASVGDRVTITCKASQNVGNIIAWYQQKPGKSPKALIYLASYRYSGVPSRFSGSGSGTDFTLTISSLQPEDVATYFCQQYSDSPYTFGQGTKVEIKR
notes: Humanized IgG1/kappa
B7: 6F11C10-Hz2 antibody (antibody, human IgG1, kappa, V domains shown)
VH: B6 VH with N55S
VL: B6 VL
notes: Optimized humanized IgG1/kappa; also called 6FC11C0-Hz2; 6F11C10-Hz2-biotin

The binders below were run against recombinant extracellular domain protein of cynomolgus monkey DLL3 (cyno.DLL3-ECD-His) (cynomolgus monkey) (assay: ELISA, coated antigen).

Row | binding | Binder
1 | binds | B1
2 | binds | B2
3 | binds | B3
4 | binds | B4
5 | binds | B5
6 | binds | B6
7 | binds | B7

These binders were tested against recombinant extracellular domain protein of cynomolgus monkey DLL3 (cyno.DLL3-ECD-His) (cynomolgus monkey) (assay: BLI (ForteBio)).

Row | binding | Binder
8 | binds | B1
9 | binds | B2
10 | binds | B3
11 | binds | B5
12 | binds | B6
